In ChEMBL document CHEMBL3091376, “Design, synthesis and in vitro anticancer evaluation of 4,6-diamino-1,3,5-triazine-2-carbohydrazides and -carboxamides” (Bioorg Med Chem Lett, 2013):
Counter-ions that a name gives are not always drawn.

Test system: MDA-MB-231
Test: Growth inhibition of human MDA-MB-231 cells after 72 hrs by CellTiter-Blue assay
Assay type: functional, cell-based
Conditions: MDA-MB-231, 72 h
Procedure, shortened: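 CellTiter-Blue viability assay after 72 h exposure to test compound. IC50 (μM) reported as the mean of triplicates with standard deviation. Some values are approximate owing to low solubility in medium.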

COc1cccc2c1C(=O)c1c(O)c3c(c(O)c1C2=O)C[C@@](O)(C(=O)CO)C[C@@H]3O[C@H]1C[C@H](N)[C@H](O)[C@H](C)O1 [DOXORUBICIN HYDROCHLORIDE]
IC50: 0.39 µM
